Experimental data taken from patent publication US20120189566A1 (DAIICHI FINE CHEMICAL CO., LTD., priority 2009, published 2012).
Where two headings read alike, the source gives them in different places.

Assays:
[1] = 0.1% (w/v) in 50 mM buffer, 40° C. for 6 months
[2] = pH stability of barium pantethine-4′,4″-diphosphate, pantethine and calcium pantetheine-5-sulfonate (Example 1); conditions: 0.1% (w/v) in 50 mM buffer, 40° C. for 6 months, diphosphate tested as barium salt
[3] = pH stability of pantethine-4′,4″-diphosphate, pantethine-4′-phosphate and pantethine (Example 2); conditions: 0.1% (w/v) in 50 mM buffer, 40° C. for 3 months, diphosphate tested as sodium salt
[4] = pH 4 or lower, or pH 6.5 or higher

- stability (content by HPLC before and after heating) ([1]; between pH 5 and 6): no difference in stability
- stability (content by HPLC before and after heating) [1, 4]: clearly degraded
- stability (content by HPLC before and after heating) ([2]; between pH 5 and 6): stable
- stability (content by HPLC before and after heating) [2, 4]: clearly degraded
- stability (content by HPLC before and after heating) ([3]; pH 4 or lower, or pH 7 or higher): clearly degraded
- stability (content by HPLC before and after heating) ([3]; pH between 5 and 6): no difference in stability
SMILES: CC(C)(CO)[C@@H](O)C(=O)NCCC(=O)NCCSSCCNC(=O)CCNC(=O)[C@H](O)C(C)(C)CO [Pantethine, pantethine]
